Data as given in PubChem BioAssay AID2685 (National Center for Advancing Translational Sciences (NCATS), 2010).
This is one part of the list. These are further read-outs of the screen, such as a control signal, another cell line or another target. No call is given for them. Most of these compounds were active or inconclusive in the main read-out, so they are no random draw. The note in brackets gives the kind of curve behind each potency; many fits are weak.

Experiment: qHTS Assay for Lipid Storage Modulators in Drosophila S3 Cells;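 as to cell number change: cells counted by Cell Tracker Red CMTPX staining in the red channel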
Conditions: BODIPY lipid droplet fluorescence, 18-24 h; for cell number change: measured here: cell count max response, cells fed with added oleic acid
Summary of the method: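 Drosophila S3 cells loaded with oleic acid (400 uM, as added) and compounds at several concentrations; lipid droplets imaged by 488-nm laser-scanning cytometry, 500–530 nm intensity and object ratio to cell channel. Percent activity normalized to 20 uM Triacsin C.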

[1] = measured here: cell number channel AC50, cells fed with added oleic acid
[2] = measured here: lipid fluorescence (Fed channel) AC50, cells fed with added oleic acid

Row | Compound | AC50 [1] | cell number change [%] | AC50 [2]
1 | CC(C)OC(=O)CSc1nnc(Cc2ccccc2)n1Cc1ccco1 | 0.58 µM [falling, single point] |  | 
2 | COC(=O)Cc1cc(=O)[nH]c(/N=C(\N)Nc2ccc(C(C)C)cc2)n1 |  | 4.4 | 
3 | CC(Nc1cccnc1)=C(C#N)C#N |  | 19.1 | 0.116 µM [rising, single point]
4 | CCOC(=O)CC1(NC(=O)c2cc(COc3ccc(F)c(F)c3)on2)CCCCC1 |  | -22 | 
5 | CN1CCN(c2ccccc2NC(=O)c2ccc(-c3cccc(Cl)c3)o2)CC1 | 6.51 µM [falling, partial curve] | -34.8 | 8.2 µM [falling, partial curve]
6 | Cc1nn(C)cc1CN(C)S(=O)(=O)c1cccc([N+](=O)[O-])c1 | 0.00517 µM [falling, full curve, poor fit] | -18.5 | 3.66 µM [falling, full curve]
7 | Cc1ccc(-c2cc(NC(=O)CCl)n(-c3ccccc3)n2)cc1 |  | -25.8 | 0.13 µM [rising, full curve, poor fit]
8 | COc1ccc(OC)c(N(CC(=O)N2CCc3ccccc3C2)S(C)(=O)=O)c1 |  | 6.21 | 5.8 µM [falling, single point]
9 | COc1ccc(-c2noc(CCC(=O)Nc3cccnc3)n2)cc1OC | 0.0184 µM [falling, full curve, poor fit] | 3.94 | 
10 | CCNc1nc(OC)nc(SCC(=O)Nc2ccccc2)n1 | 0.146 µM [rising, single point] | 8.27 | 
11 | Cc1nc(SC(C)C)[nH]c(=O)c1Cc1ccccc1 |  | -9.57 | 0.103 µM [falling, full curve, poor fit]
12 | Cc1cc(C)n(C(=O)c2ccc(C)c(S(=O)(=O)N3CCCCC3)c2)n1 |  | -0.799 | 6.51 µM [rising, single point]
13 | CCOc1ccc(NC(=O)CN(c2ccc(OC)c(OC)c2)S(=O)(=O)c2ccc(C)cc2)cc1 | 13 µM [falling, single point] | -33 | 6.51 µM [rising, partial curve]
14 | COc1ccc(-c2nc(CC(=O)O)cs2)cc1OC | 14.6 µM [rising, single point] | 41.6 | 
15 | CN(C)c1nc(N)c([N+](=O)[O-])c(NCc2ccccc2)n1 | 8.2 µM [rising, partial curve] | 43.3 | 8.2 µM [rising, partial curve]
16 | COc1ccc(-c2cc3nc(C4CCN(C(=O)OC(C)(C)C)CC4)c(C(=O)O)cn3n2)cc1 |  | -20.3 | 20.6 µM [falling, single point]
17 | COc1ccc(Cn2c(=O)[nH]c3cc(C(=O)N4CCN(c5ccccc5OC)CC4)ccc3c2=O)cc1 |  | -5.13 | 
18 | Cc1cc2c(NCCc3ccccc3)ncnc2s1 | 5.8 µM [falling, full curve, poor fit] | -61.9 | 
19 | O=C(Nc1ccc(S(=O)(=O)N2CCCc3ccccc32)cc1)C1CCCO1 (stereo not drawn) | 3.66 µM [rising, single point] |  | 6.51 µM [rising, partial curve, poor fit]

4 structures already listed, sorted by SMILES length, low to high:
Row | Compound | AC50 [1] | cell number change [%] | AC50 [2]
11 | Cc1nc(SC(C)C)[nH]c(=O)c1Cc1ccccc1 |  | -9.57 | 0.103 µM [falling, full curve, poor fit]
19 | O=C(Nc1ccc(S(=O)(=O)N2CCCc3ccccc32)cc1)C1CCCO1 (stereo not drawn) | 3.66 µM [rising, single point] |  | 6.51 µM [rising, partial curve, poor fit]
5 | CN1CCN(c2ccccc2NC(=O)c2ccc(-c3cccc(Cl)c3)o2)CC1 | 6.51 µM [falling, partial curve] | -34.8 | 8.2 µM [falling, partial curve]
2 | COC(=O)Cc1cc(=O)[nH]c(/N=C(\N)Nc2ccc(C(C)C)cc2)n1 |  | 4.4 | 

(list continues)

Row | Compound | AC50 [1] | cell number change [%] | AC50 [2]
20 | CCOC(=O)c1c(NC2OC(=O)c3c2ccc(OC)c3OC)sc(C(=O)OC(C)(C)C)c1C (stereo not drawn) |  | -18.1 | 2.31 µM [rising, single point]
21 | COc1ccc(C(O)(C(C)C)C(CN2CCOCC2)c2ccc(Cl)cc2)cc1 (stereo not drawn) |  | 6.38 | 32.6 µM [rising, single point]
22 | Cc1[nH]c2ccccc2c1C(=O)C(=O)NCc1ccco1 | 6.51 µM [falling, single point] |  | 6.51 µM [falling, single point]
23 | CCCCNC(=O)N(O)C1N(/N=C/c2cccnc2)C(=S)SC1(C)C (stereo not drawn) |  | 9.54 | 0.651 µM [rising, partial curve, poor fit]
24 | COC(=O)C1=C(C(=O)OC)[C@@H]2N(Cc3ccccc3)c3ccccc3[C@@]23C[C@@H](CO)N(C(=O)NC2CCCC2)C3=N1 | 0.13 µM [falling, full curve, poor fit] | -1.47 | 
25 | Cc1cc(Br)ccc1NC(=O)CN(C)C(=O)CCSc1ccc(F)cc1 |  | 8.57 | 29.1 µM [falling, single point]
26 | Cn1c(/C=C/c2cccc([N+](=O)[O-])c2)c([N+](=O)[O-])c(=O)n(C)c1=O |  | 6.08 | 29.1 µM [falling, single point]
27 | Cc1ccc(C(C(=O)NCC2CCCO2)N(C(=O)c2snc(C(N)=O)c2N)c2ccc(C(C)C)cc2)o1 (stereo not drawn) |  | -13.9 | 29.1 µM [rising, single point]
28 | O=C(Nc1ccccc1)N1N=C(c2ccc(F)cc2)CC1c1ccc(F)cc1 (stereo not drawn) | 29.1 µM [rising, single point] | 66.8 | 29.1 µM [rising, partial curve, poor fit]
29 | COc1ccc(CCN(C(=O)C(F)(F)F)C(C(=O)NC2CCCCC2)c2ccc(C)s2)cc1OC (stereo not drawn) |  | -29.6 | 
30 | COc1ccc(Cl)cc1S(=O)(=O)n1nnc2ccccc21 |  | -3.25 | 
31 | CC1Cc2ccccc2N1S(=O)(=O)c1cccc(C(=O)N2CC(=O)Nc3ccccc32)c1 (stereo not drawn) |  | 0.468 | 4.11 µM [rising, full curve]
32 | Cc1cccc2sc(NC(=O)CN3C(=O)NC4(CCCC4)C3=O)nc12 |  | 6.93 | 8.2 µM [rising, partial curve]
33 | Cc1cc(C)c(S(=O)(=O)N(C)CC(=O)NCC2CCCO2)c(C)c1 (stereo not drawn) |  | 14.9 | 9.2 µM [rising, partial curve]
34 | O=C(NCCCN1CCCC1=O)c1cccc(S(=O)(=O)Nc2ccccc2Cl)c1 |  | 16.8 | 4.11 µM [falling, partial curve, poor fit]
35 | O=C(O)CCCNS(=O)(=O)c1ccc(NCc2ccccc2)c(C(=O)O)c1 | 29.1 µM [falling, partial curve, poor fit] | -81.6 | 29.1 µM [falling, single point]
36 | CCS(=O)(=O)Nc1cccc(C2=NN(S(=O)(=O)c3ccc(C)cc3)C(c3cccs3)C2)c1 (stereo not drawn) | 1.3 µM [rising, partial curve] | 32.1 | 
37 | Cc1cccc(NC(=O)C(C)Oc2ccccc2C)n1 (stereo not drawn) | 29.1 µM [rising, single point] | 121 | 29.1 µM [rising, partial curve]
38 | COc1ccc(-c2cc(C(F)(F)F)nc(-n3cncn3)n2)cc1 |  |  | 6.51 µM [rising, single point]

Row | Compound | AC50 [1] | cell number change [%] | AC50 [2]
39 | C/C(=N\Nc1nncc2ccccc12)c1ccc(Cl)c([N+](=O)[O-])c1 |  | -1.68 | 
40 | COc1ccccc1NC(=O)Nc1ccccc1C#N |  | 9.12 | 29.1 µM [rising, single point]
41 | COc1ccccc1N=Nc1c(O)[nH]c2ccc(Br)cc12 | 4.61 µM [rising, full curve] | 137 | 
42 | CC(C)N(CCNC(=O)COc1ccc2oc3c(c2c1)CCCC3)C(C)C | 5.17 µM [rising, full curve, poor fit] | 37 | 23.1 µM [rising, partial curve, poor fit]
43 | O=C(Nc1ccc(O)cc1)c1ccc2c(c1)C(=O)N(N1C(=O)c3ccccc3C1=O)C2=O |  | -10.3 | 0.164 µM [falling, full curve]
44 | CC(C)(C)c1ccc(C(=O)NNc2cc(N3CCCCC3)nc(N3CCCCC3)n2)cc1 | 2.06 µM [falling, full curve] | -46.2 | 2.31 µM [falling, full curve]
45 | CNC(=O)C(Sc1nc(C)nc2c1oc1ccccc12)C(C)=O (stereo not drawn) | 0.461 µM [rising, full curve, poor fit] | 61.6 | 3.26 µM [rising, partial curve]
46 | CN(CC(=O)Nc1ccc(Cl)c(C(F)(F)F)c1)C(=O)c1cc(=O)[nH]c2ccccc12 | 13 µM [rising, partial curve] | 114 | 
47 | CC1=C(C(N)=O)C(c2ccc(C)o2)C(C(N)=O)=C(C)N1 |  |  | 0.58 µM [falling, single point]
48 | CCCc1cc(=O)[nH]c(SCC(=O)c2ccc(S(=O)(=O)N3CCCC3)cc2)n1 |  | -1.61 | 29.1 µM [rising, single point]
49 | O=S(=O)(NCC1(N2CCOCC2)CCCCC1)c1ccc(F)c(F)c1F |  | 13.4 | 32.6 µM [falling, partial curve, poor fit]
50 | Cc1ccc(N(CC(=O)Nc2ccc(S(=O)(=O)N3CCOCC3)cc2)S(C)(=O)=O)cc1C |  | -18.7 | 1.46 µM [falling, full curve, poor fit]
51 | Cn1c(=O)n(CC(=O)Nc2ccccc2)c2ccccc21 |  | -1.89 | 
52 | Cc1ccsc1/C=C/c1ccc2cccc(O)c2n1 | 29.1 µM [rising, single point] | 55.6 | 29.1 µM [rising, single point]
53 | CSCCC(NC(=O)c1ccccc1)C(=O)NCc1ccc(S(N)(=O)=O)cc1 (stereo not drawn) |  | -27.8 | 
54 | CCCN(CC(=O)Nc1ccccc1C)C(=O)c1ccc(C)c(S(=O)(=O)N2CCCCC2)c1 | 0.291 µM [rising, partial curve] | 49.5 | 
55 | O=C(NNC(=O)c1ccc(Cl)cc1Cl)c1csc(-c2cccnc2)n1 | 29.1 µM [rising, single point] | 35.4 | 18.4 µM [rising, single point]
56 | NS(=O)(=O)c1ccc(CCNC(=O)COC(=O)/C=C/c2ccc(OC(F)F)cc2)cc1 | 4.11 µM [rising, single point] | -25 | 
